Reference: publication doi:10.1101/423293
These are yes or no findings as the source states them, for the method shown. Some entries that bind do so weakly or less than the wild type.

Molecular target: T1, HORMAD1 (mouse) (UniProt Q9D5T7)
T1 sequence: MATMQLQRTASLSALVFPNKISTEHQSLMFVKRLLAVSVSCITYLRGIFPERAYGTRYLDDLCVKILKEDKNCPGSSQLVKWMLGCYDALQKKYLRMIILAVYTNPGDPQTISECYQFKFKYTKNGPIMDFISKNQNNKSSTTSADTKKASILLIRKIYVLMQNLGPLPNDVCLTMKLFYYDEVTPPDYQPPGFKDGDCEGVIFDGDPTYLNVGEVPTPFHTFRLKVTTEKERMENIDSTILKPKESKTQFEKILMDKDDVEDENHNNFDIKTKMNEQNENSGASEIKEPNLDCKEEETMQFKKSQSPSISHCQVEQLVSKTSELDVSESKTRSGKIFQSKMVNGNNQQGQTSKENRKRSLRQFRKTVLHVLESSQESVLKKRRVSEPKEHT
Assay: two-hybrid

binding: binds
B1: IHO1 (protein, UniProt Q6PDM4 1-574)
chain: MNFNVWNVKEMLSIPSGSGITKPSNWNNNQTDCSLSDSQFLFGSQFCPENSETLLPSLDAGACLRHPKQTQQNSVDSEPSIFIKYQAKPQLLGGDTKDESLFSLPLPVGKSKGLSKQFEEKKRRATDQSDSETLHSFVSHFPEVINKLQTSVEKTEENLSSRSQSILDSVETIAKTFQETARVQHDLMVESVRDKGSMEQAILEIQRTCAARQAEFMEMKSTLKNLEVLVVEQTKNLQQFCDNLSQLIVPGILEELKKFTSVPQVAGHLKDSTSQTSPSLTQSLHFTRQEKHPSEEPATWQAQEAPAGNPSTSSQRPGECGVWDEGAESGVFQKAALPTDGLHRGDGHVKNKTVPTYCKNWVMTTRSVSNHFSNLPSQRAGNGQGLMAQGASQRDVSKFEARVKNACPEYGPQSMCSFDSLEQSATEQKGRPCRKRRRGKKQQPQRSKRGGLLDRKQGQTSKAACAFIARHHCPQSPVCDPQGPLICWLTPRSSTKSTCHILGGTGETSQTARAAQGNLVQHSQRSSTDSSSQGDQQINWFSDLSLENLEPPQCKKGGTNLLCDPDFDSSDDNF
